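Assay of Toxoplasma gondii numbers, read through their beta-galactosidase reporter with a colour substrate. Tested at 50 µM. The record gives no direction; the compounds picked for IC50 retests had high values, so higher reads as fewer parasites. About 18,000 compounds were tested under these conditions; 0.94% (about 170) showed 50% or more at least once.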

Values are the deposited “Percent Effect”, in %.
The controls that fix the scale are not given in the record; negative values are as filed.
Compounds were drawn at random from those tested, without regard to their results.

structure | effect
O=S1(=O)CC[C@H]2CNC[C@H]21 | 19.69%
C1CC(OC2CCNCC2)C1 | 3.234%
NCC1CN(C(N)=O)CCO1 (centres unmarked) | -10.87%
CCC(CN)CC(F)F (centres unmarked) | -0.7593%
CC(C)(C)c1nc(CN2CCCC(CN)C2)no1 (centres unmarked) | 19.04%
NC1CCN(CC2CCCO2)CC1 (centres unmarked) | -10.13%
c1cc(-c2nnc[nH]2)ccn1 | -3.727%
CCc1noc(CN2CCC(CC(N)=O)CC2)n1 | 11.54%
Cc1cc(C(=O)N(C)Cc2ccc3c(c2)OCO3)n[nH]1 | 0.08729%
CS(=O)(=O)NCCNCc1cc(Cl)ccc1F | -2.661%
N#Cc1ccc(CN)cc1Cl | 2.053%
CN(CCN)CC(=O)N(C)C | -7.844%
Cc1nc2c(cc1C(=O)NCC1CC1)c(C)nn2C | -6.073%
OCCOC1CCCN(c2nc3ccccc3[nH]2)C1 (centres unmarked) | -5.063%
CCc1c(C)nc2sc(C(N)=O)c(N)c2c1C | 3.548%
COc1cc2c(nn1)CCN(Cc1cc(C)no1)C2 | -5.493%
CN(C(=O)c1c(F)cccc1Cl)C1CCS(=O)(=O)C1 (centres unmarked) | -17.95%
CCn1cnnc1CNC(=O)c1ccc2c(c1)CCO2 | 4.858%
CC(C)OCCN1CCN(C(=O)c2cc[nH]n2)CC1 | -2.714%
Cc1ccc(CC(C)N(C)C(=O)CCCN)cc1 (centres unmarked) | -6.802%
CN(C)C(CNc1ncccc1F)C1CC1 (centres unmarked) | -8.926%
CC(C)N1CCN(Cc2nnnn2C2CC2)CC1 | -4.596%
O=C(C1CCC1)N1CCn2c1nc1ccccc12 | -1.221%
Cc1[nH]ncc1S(=O)(=O)N(C)Cc1ccncc1 | 3.627%
CCN(CC1CCCCO1)C(=O)c1cc(Cl)c[nH]c1=O (centres unmarked) | -9.517%
CC(Oc1ccccc1Br)C(=O)NCc1nnc[nH]1 (centres unmarked) | -5.103%
CCC(OCCN)c1ccccc1 (centres unmarked) | 2.921%
N#Cc1cccc(C(=O)NCCCN2CCCC2)c1 | 3.492%
Cc1ccsc1CN1CCc2n[nH]c(=O)n2CC1 | -10.93%
COc1cc(Br)cc(C)c1NC(=O)CNC(C)=O | -11.7%
N#Cc1ccccc1N1CCN(CC(N)=O)CC1=O | -3.287%
O=S1(=O)CCC(CNc2ccnc3ccc(Cl)cc23)C1 (centres unmarked) | -2.284%
Cn1cc(N)c(C(F)(F)F)n1 | -8.221%
CCc1nnsc1C(=O)N1CC(C)(C)C(C)(O)C1 (centres unmarked) | 19.46%
Cn1cc(CNS(N)(=O)=O)cn1 | -8.651%
COc1cccc(NC(=O)Cn2cncn2)c1 | -8.771%
O=C(Nc1ccncc1)N(CCO)CC1CC1 | 10.56%
Nc1cnc(CC2CC(=O)N(c3ccccc3)C2)cn1 (centres unmarked) | -1.028%
CSCCCNC(=O)c1ccc(CN(C)C)o1 | 1.35%
CCC1CCCCN1C(=O)CN(CC(N)=O)C(C)C (centres unmarked) | 1.215%
NC(=O)CCN1CCCN(Cc2ccccc2F)CC1 | -6.225%
NC(=O)C1CCCN(S(=O)(=O)c2cc(Br)ccc2F)C1 (centres unmarked) | -10.94%
N#Cc1cccnc1N1CCCNCC1 | -5.513%
Cc1n[nH]c(SCC(=O)NC[C@H]2CCCN2)n1 | 5.058%
NCCNS(=O)(=O)c1ccccc1 | 2.926%
CN(C)c1nc(CN)cs1 | -3.708%
Cc1cc(C2CCCCN2)no1 (centres unmarked) | 9.15%
NC1CCCOc2c(Cl)cccc21 (centres unmarked) | -1.839%
CN(C)c1nc(N)nc(CN2CCC(C(N)=O)CC2)n1 | -0.9447%
CN(C)CCCC(=O)N1CCCC(CO)(CC2CC2)C1 (centres unmarked) | 0.1455%
NC(=O)c1c(F)cccc1OCc1noc(C2CC2)n1 | 10.37%
C[C@@H](N)C(=O)N1CCC(OCCCc2ccccc2)C1 (some centres unmarked) | 0.135%
CC(C(=O)NC(N)=O)N(C)CC1CCCC1 (centres unmarked) | 2.091%
COc1cc(C(C)=O)ccc1OCCCN(C)C | -11.86%
CC(C)(C)OC(=O)N[C@@H]1CCO[C@H]1C1CCNCC1 | -12.72%
CC1CN(C2CCN(c3ccncc3Cl)CC2)CCO1 (centres unmarked) | 5.173%
CC(SCc1cccc(S(=O)(=O)N(C)C)c1)C(N)=O (centres unmarked) | -6.889%

The first 4 entries again:

* O=S1(=O)CC[C@H]2CNC[C@H]21 | 19.69%
* C1CC(OC2CCNCC2)C1 | 3.234%
* NCC1CN(C(N)=O)CCO1 (centres unmarked) | -10.87%
* CCC(CN)CC(F)F (centres unmarked) | -0.7593%

Source: ChEMBL document CHEMBL3988442, “University of Dundee, Small-Polar-MMV Screening Library” (2021).